In doi:10.1101/2024.02.21.581356:
No constants are given. Whether binding was seen depends on the method and setting. Binding seen in cells or lysates may run through a third protein. Some results given as binding are weak or reduced against the parent protein; the word gives no strength. For part of these data: Where a sequence is shown, tags or fusion partners need not be part of it. Each block holds one binder with its values, some of them ahead of it.

Assays:
Test in all cases: co-IP
Settings in all cases: remark: other sources report otherwise
[1] = target: T1, Flag-RIP1 (mouse), Q60855
T1 chain: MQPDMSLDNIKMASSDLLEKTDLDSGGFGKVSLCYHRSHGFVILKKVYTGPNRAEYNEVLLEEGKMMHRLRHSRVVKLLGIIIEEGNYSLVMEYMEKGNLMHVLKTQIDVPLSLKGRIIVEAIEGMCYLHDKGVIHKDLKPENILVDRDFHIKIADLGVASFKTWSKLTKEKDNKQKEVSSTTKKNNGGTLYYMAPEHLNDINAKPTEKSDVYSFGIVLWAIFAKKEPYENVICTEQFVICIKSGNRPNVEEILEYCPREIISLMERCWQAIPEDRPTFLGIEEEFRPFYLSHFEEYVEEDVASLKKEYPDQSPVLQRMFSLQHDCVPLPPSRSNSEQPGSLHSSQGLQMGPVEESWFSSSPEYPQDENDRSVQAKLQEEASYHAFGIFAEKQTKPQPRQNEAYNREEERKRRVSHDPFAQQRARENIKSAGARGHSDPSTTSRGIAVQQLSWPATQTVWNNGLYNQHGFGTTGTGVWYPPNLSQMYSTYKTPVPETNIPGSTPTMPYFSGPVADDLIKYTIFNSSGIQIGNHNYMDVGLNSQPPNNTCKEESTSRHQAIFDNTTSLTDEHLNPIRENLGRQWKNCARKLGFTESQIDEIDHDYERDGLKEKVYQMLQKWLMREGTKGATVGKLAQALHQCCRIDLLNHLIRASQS

[2] = target: V5-RIP3 WT expressed in RIP3-KO L929 cells (mouse), Q9QZL0
[3] = target: V5-RIP3 WT (mouse), Q9QZL0

- binding [1]: binds
B1: V5-RIP3 WT, Q9QZL0 1-486 (protein)
chain: MSSVKLWPTGASAVPLVSREELKKLEFVGKGGFGVVFRAHHRTWNHDVAVKIVNSKKISWEVKAMVNLRNENVLLLLGVTEDLQWDFVSGQALVTRFMENGSLAGLLQPECPRPWPLLCRLLQEVVLGMCYLHSLNPPLLHRDLKPSNILLDPELHAKLADFGLSTFQGGSQSGSGSGSGSRDSGGTLAYLDPELLFDVNLKASKASDVYSFGILVWAVLAGREAELVDKTSLIRETVCDRQSRPPLTELPPGSPETPGLEKLKELMIHCWGSQSENRPSFQDCEPKTNEVYNLVKDKVDAAVSEVKHYLSQHRSSGRNLSAREPSQRGTEMDCPRETMVSKMLDRLHLEEPSGPVPGKCPERQAQDTSVGPATPARTSSDPVAGTPQIPHTLPFRGTTPGPVFTETPGPHPQRNQGDGRHGTPWYPWTPPNPMTGPPALVFNNCSEVQIGNYNSLVAPPRTTASSSAKYDQAQFGRGRGWQPFHK

- binding [2]: binds
B2: RIP1, endogenous in L929 cells, Q60855 1-656 (protein)
chain: T1 chain

- binding [3]: binds
B3: Flag-RIP1, Q60855 1-656 (protein)
chain: T1 chain
